Measurements: the supplement of paper PMC12764529
± gives the half width of the 95% confidence interval. The two proteases of the assay disagree for many of these sequences.

How the values were obtained:
[1] = folding stability dG unfold (combined trypsin and chymotrypsin); higher = more stable
Summary of the method: (§1)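 How resistant each design was to proteolysis was captured as K50, inferred by Bayesian fitting of sequencing counts. Unfolding free energy was then derived relative to a sequence-predicted unfolded-state K50 and a shared folded-state K50, per protease or combined. Digestion used trypsin and chymotrypsin at 11 threefold-diluted concentrations plus a no-protease condition, on mini-proteins under 80 residues without cysteine in a PA-tagged cDNA display construct. Designs were kept only when AlphaFold2 dimer inter-PAE was above 15.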

[2] = folding stability dG unfold from chymotrypsin proteolysis; higher = more stable
Summary of the method: as §1

[3] = folding stability dG unfold from trypsin proteolysis; higher = more stable
Summary of the method: as §1

Sequence: SAGGKKDKYIVEVEFKDGKKVTIEVDGKSIEEILEELKKLGAKEVKIKVYRNGKLIEEFTIKLPPGKSAGGS [r16_700_TrROS_Hall]
- folding stability dG unfold [1]: 3.61 ± 0.16 kcal/mol
- folding stability dG unfold [2]: 4.08 ± 0.1 kcal/mol
- folding stability dG unfold [3]: 1.53 ± 0.046 kcal/mol

Sequence: SAGGGWFPITFEFLFRMKFNGHWMWMLMEITIFIPIPPPPPTIPIPPDQAKKIEWDPNNGKYYVEPGSAGGS [r8_28_TrROS]
- folding stability dG unfold [1]: 2.95 ± 0.3 kcal/mol
- folding stability dG unfold [2]: 3.62 ± 0.067 kcal/mol
- folding stability dG unfold [3]: 1.62 ± 0.11 kcal/mol

Sequence: SAGGSAGGSAGVRYDPDGWIEITITVMFFEWERDPDNGKWKMKMETVTVTIRIPVPPGAKSAGGSAGGSAGG [r17_527_TrROS]
- folding stability dG unfold [1]: 4.31 ± 0.4 kcal/mol
- folding stability dG unfold [2]: 4.89 ± 0.17 kcal/mol
- folding stability dG unfold [3]: 2.04 ± 0.14 kcal/mol

Sequence: SAGGNIEIEMHMYRDPDDGYIIMAMTIEIEVTVPPSPEMRDNMPPGQTRTRTITFIFVFPLPPGDLKSAGGS [r8_274_TrROS]
- folding stability dG unfold [1]: 4.71 ± 0.11 kcal/mol
- folding stability dG unfold [2]: 5.22 ± 0.17 kcal/mol
- folding stability dG unfold [3]: 2.77 ± 0.077 kcal/mol

Sequence: SAGGETIKIKITLTNENGEKAEITEVTIEKKDGYVTITVTVKLSNGEEKEVTLTLVLKLPPPPKEKKSAGGS [r16_132_TrROS_Hall]
- folding stability dG unfold [1]: 4.13 ± 0.3 kcal/mol
- folding stability dG unfold [2]: 4.3 ± 0.19 kcal/mol
- folding stability dG unfold [3]: 1.66 ± 0.15 kcal/mol

Sequence: SAGGSAGGSKKVKIVSIEEKEGFVKVKIKFPDGSEKTIVMSEEEIKELAEKLNVEVEIVEVEPSAGGSAGGS [r12_676_TrROS_Hall]
- folding stability dG unfold [1]: 1.42 ± 0.24 kcal/mol
- folding stability dG unfold [2]: 1.91 ± 0.15 kcal/mol
- folding stability dG unfold [3]: -0.163 ± 0.11 kcal/mol

Sequence: SAEKIKELLKKLGFEITKIEVVKDENGKEYIRITIKVKKVEYDPKTKEKKVKTETLTITLSKEELLKLLSAG [r14_16_TrROS_Hall]
- folding stability dG unfold [1]: 5.16 ± 0.26 kcal/mol
- folding stability dG unfold [2]: 5.33 ± 0.12 kcal/mol
- folding stability dG unfold [3]: 3.12 ± 0.079 kcal/mol

Sequence: SAGIFRFPDGQEITIPYYARTPNGKITPSEIKEQIKEFLAEQPGVKITEIEVEHEDNYVRVTITVRLPKSAG [r5_688_TrROS]
- folding stability dG unfold [1]: 1.01 ± 0.21 kcal/mol
- folding stability dG unfold [2]: 0.316 ± 0.42 kcal/mol
- folding stability dG unfold [3]: 1.46 ± 0.14 kcal/mol

Sequence: SAGGSAGGAELKPVGNDPETGKTAVILLKKPDPTGLVLALEGLSPEELKKLAEIPGYEAVAVLASAGGSAGG [r6_185_TrMRF]
- folding stability dG unfold [1]: 0.787 ± 0.071 kcal/mol
- folding stability dG unfold [2]: 0.213 ± 0.23 kcal/mol
- folding stability dG unfold [3]: 0.996 ± 0.037 kcal/mol

Sequence: SAGGSAGGSAGGDNDDAPPIEIEPVEHETYMNPDGWGIEINVYRIKGGATFIALSIMPMDSAGGSAGGSAGG [r7_948_TrROS]
- folding stability dG unfold [1]: 3.6 ± 0.37 kcal/mol
- folding stability dG unfold [2]: 4.52 ± 0.31 kcal/mol
- folding stability dG unfold [3]: 2.35 ± 0.19 kcal/mol

Sequence: SAGGFWLKNPNGHYIQVNVEVEWEPRRDPDNGKPTWEPKIEINVEVYDPNGEKRPIPEDQAKDLLKKLSAGG [r13_809_TrROS]
- folding stability dG unfold [1]: 1.31 ± 0.11 kcal/mol
- folding stability dG unfold [2]: 1.64 ± 0.082 kcal/mol
- folding stability dG unfold [3]: 0.604 ± 0.073 kcal/mol

Sequence: SAGGLPGLSAEELARRLAERLREALAAAGYTVEIELTVEITVTDEDGRTRTFTFTLRIRVEPPPPPPSAGGS [r16_550_TrROS_Hall]
- folding stability dG unfold [1]: 4.8 ± 0.12 kcal/mol
- folding stability dG unfold [2]: 5.15 ± 0.074 kcal/mol
- folding stability dG unfold [3]: 4.05 ± 0.069 kcal/mol

Sequence: SAGGMRLVIELEMTEEEARRLAEELARELAEELGLEVVRVEVRYDPETRRVTIVVEIRPAPPPPPPEESAGG [r13_669_TrROS_Hall]
- folding stability dG unfold [1]: 3.47 ± 0.22 kcal/mol
- folding stability dG unfold [2]: 2.08 ± 0.16 kcal/mol
- folding stability dG unfold [3]: 4.09 ± 0.25 kcal/mol

Sequence: SAGGSAGGSAGEVTLTEETRPLPDGTPVRVTTTEVIPEVGTTVTTVTYPGDETRTETIALSAGGSAGGSAGG [r11_742_JUSTAS]
- folding stability dG unfold [1]: 0.685 ± 0.029 kcal/mol
- folding stability dG unfold [2]: -1.29 ± 0.11 kcal/mol
- folding stability dG unfold [3]: 1.39 ± 0.043 kcal/mol
